Assay results from PubChem BioAssay AID624297 (National Center for Advancing Translational Sciences (NCATS), 2012).
The campaign covered roughly 340,000 compounds. About 6,200 (1.8%) were called active. The inconclusive results got no clear call from the source; some entries with a clear call stand among them for comparison. Calls come from the whole dose curve; as a rule, active = well fitted activation curve with a large enough effect; inconclusive = small, poorly fitted or top-dose-only effect; inactive = no such curve, though single readings can be large or run the other way. A potency beside an inconclusive call is a rough fit, not a confirmed value.

Assay: A quantitative high throughput screen for small molecules that induce DNA re-replication in SW480 colon adenocarcinoma cells. For re-replication activation: % of control where 0% means no effect. Note: nearly all actives have a fitted effect of over 55% in size.
Conditions: Hoechst DNA content imaging, 48 h; re-replication activation: at 46.1 µM (top of the series) unless noted
Method in brief: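 SW480 cells exposed to compounds for 48 hr at 37 C, 5% CO2, then Hoechst-stained 40 min. Nuclear DNA content imaged by fluorescence scanning (405 nm excitation, 500-530 nm emission); re-replication scored as increased high-intensity nuclei.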
Potency is the fitted concentration of half-maximal effect.

Row | SMILES | Potency | re-replication activation
1 | CCOC(=O)Nc1ccc(C(=O)c2ccncc2)cc1 | inconclusive: 16.4 µM [activator, single point] | 
2 | Cc1nn(-c2ccccc2)c(N)c1N=Nc1ccccc1 | inconclusive: 29.1 µM [activator, partial curve, poor fit] | 
3 | CCc1cc(C(=O)c2ccc(OC)cc2)c(NC(=O)CCC(=O)O)s1 |  | inactive: -1.77%
4 | COc1cc(S(=O)(=O)N(Cc2ccc(C)cc2)C2CCCCC2)ccc1-n1cnnn1 |  | inactive: -0.0564%
5 | Cn1cccc1CC(=O)N/N=C/C=C/c1ccco1 |  | inactive: 2.08%
6 | C=CCOc1ccc(Br)cc1/C=C1/SC(=Nc2ccc(C(=O)O)cc2)NC1=O |  | inactive: -12.4%
7 | Cc1ccc(SCCNC(=S)Nc2cc(C)ccc2C)cc1 |  | inactive: 3.11%
8 | Cc1ccnc(NS(=O)(=O)c2ccc(NC(=O)CC(C)c3ccccc3)cc2)n1 (configuration not stated) |  | inactive: 3.16%
9 | O=C(NC1CCN(C(=O)NCc2ccccc2)CC1)c1cccc(F)c1 | inconclusive: 7.31 µM [activator, partial curve, poor fit] | 
10 | CCn1c(C)nc2cc(C(=O)N/N=C/c3cccc(OC)c3O)ccc21 | active: 1.64 µM | 
11 | COc1ccc(C2c3[nH]c4ccccc4c3CCN2CCCn2cccn2)c(C)c1C (configuration not stated) | inconclusive: 29.1 µM [activator, partial curve, poor fit] | 
12 | COc1cc(CN2CC(=O)N(c3ccc(C)c(C)c3)C2=S)cc(OC)c1OC | inconclusive: 11.6 µM [activator, single point] | 
13 | Cc1cc(C(=O)N2CCCC(CO)(Cc3ccc(F)cc3)C2)c(C)o1 (configuration not stated) | inconclusive: 29.1 µM [activator, single point] | 
14 | Cc1cc(C)c2cc(C(=O)Nc3ccc(C)c(F)c3)[nH]c2c1 | inconclusive: 5.17 µM [activator, full curve] | 
15 | COCCCNCCCCOc1ccc(Br)cc1Cl | inconclusive: 32.6 µM [activator, partial curve, poor fit] | 
16 | CC(C)Nc1nc(NC(C)C)nc(N(C)N)n1 |  | inactive: -3.44%
17 | Cc1cccc(Oc2nccc(C(F)(F)F)c2C(=O)Nc2ccc(F)cc2F)c1 |  | inactive: -8.3%
18 | COC(=O)c1ccc(OCC(O)CNCC(c2ccc(OC)cc2)N(C)C)c(OC)c1 (configuration not stated) | inconclusive: 14.6 µM [activator, single point] | 
19 | CCOc1cc(C(=O)N(C)CC(=O)Nc2cccc3ccccc23)ccc1OC |  | inactive: -7.76%
20 | CC(C)(C)c1cc2cccnc2n1Cc1cccc(Cl)c1 |  | inactive: 1.53%
21 | O=C(Nc1ccc2oc(=O)ccc2c1)c1ccc(-c2ccccc2[N+](=O)[O-])o1 | inconclusive: 6.51 µM [activator, single point] | 
22 | Cc1ccc(/C=N/Nc2cn[nH]c(=O)n2)o1 |  | inactive: -10%
23 | COc1ccc(NC(=O)CSc2nc3ccc(Nc4nc(N5CCOCC5)nc(N5CCOCC5)n4)cc3s2)cc1 |  | inactive: 13%
24 | CN(C)S(=O)(=O)c1ccc2c(c1)nc(CCC(=O)Nc1ccc3c(c1)OCO3)n2C |  | inactive: 9.92%

Row | SMILES | Potency | re-replication activation
25 | O=C(N/N=C/c1c(O)n(-c2ccccc2Cl)c(=O)c2ccccc12)C1COc2ccccc2O1 (configuration not stated) | inconclusive: 29.1 µM [activator, single point] | 
26 | Cc1onc(-c2ccccc2)c1C(=O)NNC(=S)NC(=O)/C=C/c1ccccc1 | inconclusive: 29.1 µM [activator, single point] | 
27 | CCOC(=O)c1c(-c2ccc(F)cc2)csc1/N=C/N(C)C | inconclusive: 0.146 µM [activator, full curve, poor fit] | 
28 | CCOc1ccccc1C(=O)NC(C)c1ccc2c(c1)OCO2 (configuration not stated) | inconclusive: 29.1 µM [activator, single point] | 
29 | CC(OC(=O)/C=C/c1cccc(C(F)(F)F)c1)C(=O)NC1CCCCC1C (configuration not stated) | inconclusive: 0.326 µM [activator, full curve, poor fit] | 
30 | CCOC(=O)CCCSc1nc(-c2ccc3c(c2)OCO3)cc(C(F)(F)F)c1C#N | inconclusive: 8.2 µM [activator, partial curve] | 
31 | O=C(Nc1ccc(OC(F)(F)F)cc1)c1ccc2c(c1)no[n+]2[O-] | inconclusive: 29.1 µM [activator, single point] | 
32 | Cc1cc(OC(=O)c2ccc(S(=O)(=O)N3CCCCC3)cc2)c([N+](=O)[O-])c(=O)[nH]1 |  | inactive: -5.11%
33 | COCCCNC(=O)c1c(N)n(/N=C/c2cccs2)c2nc3ccccc3nc12 | active: 7.31 µM | 
34 | CN(CC(=O)Nc1ccc(Cl)c(C(F)(F)F)c1)C(=O)c1cc(-c2ccncc2)nc2ccccc12 | inconclusive: 29.1 µM [activator, single point] | 
35 | COc1ccc(C(=O)Oc2cccc(Nc3ncnc4ccccc34)c2)cc1OC |  | inactive: -6.67%
36 | Cc1c(C)n2c3c(cccc13)CC2 |  | inactive: -10.9%
37 | COc1cc(/C=N/NC(=S)Nc2cccc(S(=O)(=O)N(C)C)c2)cc(OC)c1O |  | inactive: -2.22%
38 | COc1cccc(NC(=O)Nc2ccc3nc(C)c(C)nc3c2)c1 |  | inactive: -7.99% [at 1.84 µM]
39 | CNCC(O)C(O)C(O)C(O)CO (configuration not stated) | inconclusive: 0.326 µM [activator, full curve, poor fit] | 
40 | O=C1NC2=C(C(=O)OC2)C(c2ccc(OC(F)(F)F)cc2)N1 (configuration not stated) |  | inactive: 2.27%
41 | O=C(Cn1cnc2ccccc2c1=O)c1ccc(Br)cc1 | inconclusive: 6.51 µM [activator, single point] | 
42 | CCC1c2ccc(C)n2CCN1C(=O)Nc1ccccc1C(=O)OC (configuration not stated) | inconclusive: 29.1 µM [activator, single point] | 
43 | O=C(c1ccco1)N1CCN(C(=O)c2cccc3c2C(=O)N(C2CCCCC2)C3)CC1 |  | inconclusive: -703% [activator]
44 | Cc1cc(Oc2ccccc2)nc(SCC(=O)Nc2ccc(Cl)cc2Cl)n1 | inconclusive: 32.6 µM [activator, partial curve, poor fit] | 
45 | CCOCCn1c(SCc2c(F)cccc2Cl)nc2c1c(=O)[nH]c(=O)n2C | inconclusive: 18.4 µM [activator, single point] | 
46 | OC(CNC1CCCC1)COc1ccc(-c2ccccc2)cc1 (configuration not stated) | inconclusive: 18.4 µM [activator, single point] | 
47 | COc1ccc(C2=NN(c3ccccc3)C(c3cccs3)C2)cc1 (configuration not stated) | inconclusive: 29.1 µM [activator, single point] | 
48 | COc1ccccc1CNC(=O)COC(=O)c1cccc(S(=O)(=O)N2CCCC2)c1 |  | inactive: -2.75%

An excerpt of these results, as comma-separated lines:
Row,SMILES,Potency,re-replication activation
25,O=C(N/N=C/c1c(O)n(-c2ccccc2Cl)c(=O)c2ccccc12)C1COc2ccccc2O1 (configuration not stated),"inconclusive: 29.1 µM [activator, single point]",
29,CC(OC(=O)/C=C/c1cccc(C(F)(F)F)c1)C(=O)NC1CCCCC1C (configuration not stated),"inconclusive: 0.326 µM [activator, full curve, poor fit]",
32,Cc1cc(OC(=O)c2ccc(S(=O)(=O)N3CCCCC3)cc2)c([N+](=O)[O-])c(=O)[nH]1,,inactive: -5.11%
38,COc1cccc(NC(=O)Nc2ccc3nc(C)c(C)nc3c2)c1,,inactive: -7.99% [at 1.84 µM]
48,COc1ccccc1CNC(=O)COC(=O)c1cccc(S(=O)(=O)N2CCCC2)c1,,inactive: -2.75%

(further entries)

Row | SMILES | Potency | re-replication activation
49 | COP(=O)(c1ccc(N(C)C)cc1)C(O)c1ccccc1 (configuration not stated) |  | inactive: -2.77%
50 | CN(C)/N=C/c1ccc(P(c2ccc(/C=N/N(C)C)o2)c2ccc(/C=N/N(C)C)o2)o1 | inconclusive: 29.1 µM [activator, single point] | 
51 | CCN(CC(=O)NCc1ccc(F)cc1)CC(=O)Nc1ccc(S(=O)(=O)N2CCCC2)cc1 | inconclusive: 6.51 µM [activator, single point] | 
52 | COCCCNc1nc(-c2ccncc2)nc2ccccc12 | inconclusive: 32.6 µM [activator, partial curve, poor fit] | 
53 | COc1cccc(-c2ccc(NC(=O)C3CCCN(Cc4cnc(C)s4)C3)cc2)c1 (configuration not stated) |  | inactive: -4.66%
54 | O=C(NC1CCCCC1)C1CCCN(c2nnnn2-c2ccccc2)C1 (configuration not stated) |  | inactive: -3.28%
55 | C=CCn1c(C)cc(C(=O)COc2ccc(C)nc2[N+](=O)[O-])c1C | inconclusive: 29.1 µM [activator, single point] | 
56 | C#CCN(CC=C)C(=O)c1ccc2nc(C3CCCCC3)oc2c1 |  | inactive: 10.6%
57 | COC(=O)c1ccc(NC(=O)CSCc2ccccc2C)cc1 |  | inactive: -5.92%
58 | Cc1ccc(S(=O)(=O)N(C)c2ccc(C(=O)Nc3ccc(C)cn3)cc2)cc1 | inconclusive: 25.9 µM [activator, single point] | 
59 | CCn1c(C)nnc1SCC(=O)Nc1cccc(Cl)c1 | active: 14.6 µM | 
60 | O=C(COC(=O)/C=C/c1ccccc1)NCCNC(=O)COC(=O)/C=C/c1ccccc1 | inconclusive: 0.0231 µM [activator, full curve, poor fit] | 
61 | CN(C)c1ccc(S(=O)(=O)NCC(=O)N2CCN(c3ccccc3)CC2)cc1[N+](=O)[O-] |  | inactive: -5.71%
62 | COc1ccccc1NC(=S)N1CC(C)(C)C1=O | inconclusive: 0.13 µM [activator, full curve, poor fit] | 
63 | Cc1ccccc1NC(=O)c1ccc([N+](=O)[O-])o1 | inconclusive: 23.1 µM [activator, partial curve, poor fit] | 
64 | Cc1ccc(NC(=O)CN(C)C(=O)COC(=O)/C=C/c2cccs2)cc1 |  | inactive: -71.1%
65 | CCC(=O)Nc1cccc(C(=O)/C=C/c2ccccc2)c1 | inconclusive: 29.1 µM [activator, single point] | 
66 | Nc1nc(CN2CCN(Cc3ccccc3)CC2)nc(Nc2ccccc2)n1 |  | inactive: 4.39%
67 | O=C(NN1C(=O)/C(=C\c2cccnc2)SC1=S)C(c1ccccc1)c1ccccc1 |  | inactive: -4.08%
68 | CSc1nc(-c2ccccc2)c(-c2ccccc2)[nH]1 | inconclusive: 29.1 µM [activator, single point] | 
69 | Cc1[nH]n(C)c(=O)c1C(=O)c1c(-c2ccccc2Cl)noc1C | inconclusive: 29.1 µM [activator, partial curve, poor fit] | 
70 | CCn1c(SCC(=O)Nc2cc(C)on2)nc2sc3c(c2c1=O)CCCC3 | inconclusive: 29.1 µM [activator, single point] | 
71 | C#CCOCCOCCOCCNc1nc(N2CCN(C(=O)[C@H](CCCCN)n3cc(CC(C)O)nn3)CC2)nc(N2CCN(C(=O)[C@H](Cc3ccc(O)cc3)n3cc(CCO)nn3)CC2)n1 (some centres not stated) | inconclusive: 5.17 µM [activator, partial curve, poor fit] | 
72 | O=c1c2ccccc2oc2cc(NCCCN3CCOCC3)ccc12 | inconclusive: 20.6 µM [activator, single point] | 
